{
  "source": "paper PMC5307796",
  "key": {"[1]": {"molecular_target": "His-FLAG-huPS1 with a 15 amino acid deletion (PS1 del265-279) (human) (UniProt P49768)", "test": "FRET or BRET; antibody-based FLIM on fixed, immunostained PC12 cells (anti-FLAG and anti-Syt1, AF488 donor and Cy3 acceptor secondary antibodies) after 15 min 50 mM KCl"}, "[2]": {"molecular_target": "His-FLAG-huPS1 with a 15 amino acid deletion (PS1 del265-279) (human) (UniProt P49768)", "test": "pull-down; IMAC: His-PS1 captured on MagneHis Ni-Particles from 1% CHAPS lysates of transfected PC12 cells stimulated 15 min with 50 mM KCl; 20 mM imidazole; western blot for Syt1"}},
  "note": "These are yes or no findings as the source states them, for the method shown. In cells and extracts the contact can be indirect. Some entries that bind do so weakly or less than the wild type.",
  "data": [
    {"substance": "Synaptotagmin 1, endogenous in PC12 cells (from UniProt P21707 1-421)", "values": [
      {"measurement": "binding", "setting": "[1]", "result": "binds"},
      {"measurement": "binding", "setting": "[2]", "result": "binds"}
    ]}
  ]
}
